Source: doi:10.1101/2024.07.08.601072
Results are given in words; binding and its absence hold for the method and conditions named. In cells and extracts the contact can be indirect. Here binding means that the protein was enriched with, or labelled near, the bait; the list need not be complete. Where a sequence is shown, tags or fusion partners need not be part of it.

Amino acid sequences for entries named in this document (tags omitted).
UniProt Q03280: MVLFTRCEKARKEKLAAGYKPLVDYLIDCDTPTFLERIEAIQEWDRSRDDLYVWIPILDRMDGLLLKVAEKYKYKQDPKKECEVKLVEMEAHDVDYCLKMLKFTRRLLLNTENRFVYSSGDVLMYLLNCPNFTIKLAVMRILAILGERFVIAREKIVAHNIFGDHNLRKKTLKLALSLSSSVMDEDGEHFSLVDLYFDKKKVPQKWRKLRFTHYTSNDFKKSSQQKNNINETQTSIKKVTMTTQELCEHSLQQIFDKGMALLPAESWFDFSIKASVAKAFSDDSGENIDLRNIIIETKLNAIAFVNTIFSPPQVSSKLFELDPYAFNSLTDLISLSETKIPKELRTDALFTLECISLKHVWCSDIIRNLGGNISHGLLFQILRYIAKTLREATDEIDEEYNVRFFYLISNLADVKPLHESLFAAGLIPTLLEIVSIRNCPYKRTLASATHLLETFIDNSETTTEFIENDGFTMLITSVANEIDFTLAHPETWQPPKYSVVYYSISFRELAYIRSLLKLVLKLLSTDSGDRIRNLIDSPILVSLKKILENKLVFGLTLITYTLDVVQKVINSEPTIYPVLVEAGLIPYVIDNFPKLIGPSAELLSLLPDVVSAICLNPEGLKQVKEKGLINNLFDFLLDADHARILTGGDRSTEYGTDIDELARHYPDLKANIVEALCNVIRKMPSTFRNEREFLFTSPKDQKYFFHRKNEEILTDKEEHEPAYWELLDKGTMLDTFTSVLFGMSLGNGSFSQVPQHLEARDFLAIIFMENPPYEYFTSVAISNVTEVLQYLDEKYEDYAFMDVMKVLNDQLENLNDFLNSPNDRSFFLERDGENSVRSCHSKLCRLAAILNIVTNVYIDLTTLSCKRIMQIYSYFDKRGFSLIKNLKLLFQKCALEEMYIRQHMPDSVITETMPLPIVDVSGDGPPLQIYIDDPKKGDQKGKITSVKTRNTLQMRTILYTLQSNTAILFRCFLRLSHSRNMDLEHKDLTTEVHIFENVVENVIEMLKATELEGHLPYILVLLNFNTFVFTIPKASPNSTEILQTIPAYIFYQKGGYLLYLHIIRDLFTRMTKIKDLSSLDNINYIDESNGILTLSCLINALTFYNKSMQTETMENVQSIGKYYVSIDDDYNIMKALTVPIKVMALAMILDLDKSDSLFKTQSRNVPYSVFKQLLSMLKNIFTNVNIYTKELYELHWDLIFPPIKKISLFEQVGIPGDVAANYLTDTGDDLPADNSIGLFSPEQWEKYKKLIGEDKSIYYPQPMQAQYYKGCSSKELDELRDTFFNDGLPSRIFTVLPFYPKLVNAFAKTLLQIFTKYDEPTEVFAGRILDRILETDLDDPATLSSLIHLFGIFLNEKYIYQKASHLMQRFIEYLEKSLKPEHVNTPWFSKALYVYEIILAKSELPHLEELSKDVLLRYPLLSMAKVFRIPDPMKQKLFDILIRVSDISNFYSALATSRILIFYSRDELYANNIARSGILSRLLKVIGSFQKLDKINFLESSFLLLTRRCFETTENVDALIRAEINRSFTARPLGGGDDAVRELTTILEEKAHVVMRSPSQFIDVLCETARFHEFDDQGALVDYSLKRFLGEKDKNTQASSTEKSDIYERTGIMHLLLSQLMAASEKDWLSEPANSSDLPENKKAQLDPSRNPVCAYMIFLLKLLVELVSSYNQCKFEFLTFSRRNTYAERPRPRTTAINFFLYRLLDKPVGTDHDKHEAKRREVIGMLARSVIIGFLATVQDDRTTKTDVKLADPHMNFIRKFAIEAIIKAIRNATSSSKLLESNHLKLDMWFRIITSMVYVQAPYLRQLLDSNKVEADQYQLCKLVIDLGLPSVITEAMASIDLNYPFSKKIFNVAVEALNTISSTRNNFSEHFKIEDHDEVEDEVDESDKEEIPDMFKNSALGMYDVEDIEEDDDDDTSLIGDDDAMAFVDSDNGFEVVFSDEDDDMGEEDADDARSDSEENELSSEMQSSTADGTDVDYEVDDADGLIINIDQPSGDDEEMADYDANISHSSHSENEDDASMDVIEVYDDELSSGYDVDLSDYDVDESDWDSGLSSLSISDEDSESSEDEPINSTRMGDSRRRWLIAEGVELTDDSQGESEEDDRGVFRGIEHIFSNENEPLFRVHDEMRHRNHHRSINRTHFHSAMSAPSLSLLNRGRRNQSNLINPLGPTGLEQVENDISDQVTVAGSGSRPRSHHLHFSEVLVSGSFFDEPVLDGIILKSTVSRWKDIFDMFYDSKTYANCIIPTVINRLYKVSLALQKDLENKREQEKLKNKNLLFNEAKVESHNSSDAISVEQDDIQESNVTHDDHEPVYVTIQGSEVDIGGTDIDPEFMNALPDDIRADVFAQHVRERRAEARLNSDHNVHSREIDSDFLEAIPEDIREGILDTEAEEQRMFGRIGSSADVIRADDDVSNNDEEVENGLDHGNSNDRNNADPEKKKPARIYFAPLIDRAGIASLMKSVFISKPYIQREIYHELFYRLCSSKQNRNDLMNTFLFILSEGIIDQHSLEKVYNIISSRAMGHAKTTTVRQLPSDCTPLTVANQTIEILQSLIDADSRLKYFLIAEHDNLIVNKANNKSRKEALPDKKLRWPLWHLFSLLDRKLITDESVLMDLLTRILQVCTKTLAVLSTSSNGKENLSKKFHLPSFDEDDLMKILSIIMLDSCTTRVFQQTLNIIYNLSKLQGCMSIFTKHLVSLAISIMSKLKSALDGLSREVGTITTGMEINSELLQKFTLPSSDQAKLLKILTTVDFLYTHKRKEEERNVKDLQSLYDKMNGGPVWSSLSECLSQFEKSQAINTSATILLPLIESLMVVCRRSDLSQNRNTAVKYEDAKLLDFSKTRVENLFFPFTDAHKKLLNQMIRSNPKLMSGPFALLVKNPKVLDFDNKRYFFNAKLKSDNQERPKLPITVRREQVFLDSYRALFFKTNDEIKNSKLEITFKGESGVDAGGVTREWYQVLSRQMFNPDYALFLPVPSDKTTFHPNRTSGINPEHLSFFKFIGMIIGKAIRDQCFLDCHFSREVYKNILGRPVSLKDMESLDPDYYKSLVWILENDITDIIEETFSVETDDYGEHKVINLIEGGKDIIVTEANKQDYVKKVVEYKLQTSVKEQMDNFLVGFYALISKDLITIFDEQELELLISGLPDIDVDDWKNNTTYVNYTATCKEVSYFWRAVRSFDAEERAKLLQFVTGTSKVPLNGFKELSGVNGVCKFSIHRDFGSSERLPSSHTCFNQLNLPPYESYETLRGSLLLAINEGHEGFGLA

Target: T1, Streptavidin-FLAG-Spt6p^tSH2 (S. cerevisiae) (UniProt P23615)
T1 sequence: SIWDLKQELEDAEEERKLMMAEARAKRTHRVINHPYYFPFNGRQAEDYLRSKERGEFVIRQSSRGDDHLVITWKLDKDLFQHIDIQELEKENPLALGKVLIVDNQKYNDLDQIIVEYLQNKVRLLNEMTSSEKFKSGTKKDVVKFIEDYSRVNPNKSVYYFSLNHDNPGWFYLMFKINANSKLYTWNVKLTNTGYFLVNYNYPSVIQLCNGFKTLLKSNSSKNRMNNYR
Assay: affinity purification with mass spectrometry

With “Tom1p (endogenous) (from UniProt Q03280 1-3268)” the binding was “binds”.
